Results are given in words; binding and its absence hold for the method and conditions named. For part of these data: Binding calls can cover weak binding; strength is not graded here.

For test [1], the target named is hCRD human/mouse hybrid ROR2. In words: dot blot of arrayed recombinant proteins (key on the sheet).
For test [2], the target named is hKringle human/mouse hybrid ROR2. The test is described as above.
Test [3] deals with hCRD human/mouse hybrid ROR2. In words: dot blot on nylon membrane, anti-human IgG-HRP.
Test [4] concerns the target hKringle human/mouse hybrid ROR2. In words: dot blot on nylon membrane, anti-human IgG-HRP.
Test [5] has as its target hCRD human/mouse hybrid ROR2. In words: dot blot.
Test [6] addresses hKringle human/mouse hybrid ROR2. Kind of test: dot blot.

B1: h6E6-102 (antibody, human IgG1, V domains shown)
VH: EVQLVESGGGLVKPGGSLRLSCAASGFTFSKYGLSWVRQAPGKGLEWVSTISSGGGYTHYVESVKGRFTISRDNAKNSLYLQMNSLRAEDTAVYYCARHPRDFSYASDYWGQGTTVTVSS
VL: EIVMTQSPATLSVSPGERATLSCKASQDVGHYVAWYQQKPGQAPRLLIYWASTRATGIPARFSGSGSGTEFTLTISSLQSEDFAVYYCQQYNIYPWTFGQGTKVEIK
Take B1: the binding entry in test [1] is recorded as “no binding”; in test [2], “binds”; in test [3], “no binding”; in test [4], “binds”; in test [5], “no binding”; in test [6] it was “binds”.

The values above are taken from US20260209348A1.
